Patent US20250257071A9, “TRICYCLIC COMPOUND, METHOD FOR PREPARING SAME, AND USE THEREOF” (Sichuan Kelun-Biotech Biopharmaceutical Co., Ltd., priority 2021, published 2025)
At least one structure is not confirmed: it was looked up by name or label, or the drawing left a doubt.

Chains of the proteins cited; added tags and fusions are not shown. Residues count along the entry.
UniProt Q9NYK1, 27-1049: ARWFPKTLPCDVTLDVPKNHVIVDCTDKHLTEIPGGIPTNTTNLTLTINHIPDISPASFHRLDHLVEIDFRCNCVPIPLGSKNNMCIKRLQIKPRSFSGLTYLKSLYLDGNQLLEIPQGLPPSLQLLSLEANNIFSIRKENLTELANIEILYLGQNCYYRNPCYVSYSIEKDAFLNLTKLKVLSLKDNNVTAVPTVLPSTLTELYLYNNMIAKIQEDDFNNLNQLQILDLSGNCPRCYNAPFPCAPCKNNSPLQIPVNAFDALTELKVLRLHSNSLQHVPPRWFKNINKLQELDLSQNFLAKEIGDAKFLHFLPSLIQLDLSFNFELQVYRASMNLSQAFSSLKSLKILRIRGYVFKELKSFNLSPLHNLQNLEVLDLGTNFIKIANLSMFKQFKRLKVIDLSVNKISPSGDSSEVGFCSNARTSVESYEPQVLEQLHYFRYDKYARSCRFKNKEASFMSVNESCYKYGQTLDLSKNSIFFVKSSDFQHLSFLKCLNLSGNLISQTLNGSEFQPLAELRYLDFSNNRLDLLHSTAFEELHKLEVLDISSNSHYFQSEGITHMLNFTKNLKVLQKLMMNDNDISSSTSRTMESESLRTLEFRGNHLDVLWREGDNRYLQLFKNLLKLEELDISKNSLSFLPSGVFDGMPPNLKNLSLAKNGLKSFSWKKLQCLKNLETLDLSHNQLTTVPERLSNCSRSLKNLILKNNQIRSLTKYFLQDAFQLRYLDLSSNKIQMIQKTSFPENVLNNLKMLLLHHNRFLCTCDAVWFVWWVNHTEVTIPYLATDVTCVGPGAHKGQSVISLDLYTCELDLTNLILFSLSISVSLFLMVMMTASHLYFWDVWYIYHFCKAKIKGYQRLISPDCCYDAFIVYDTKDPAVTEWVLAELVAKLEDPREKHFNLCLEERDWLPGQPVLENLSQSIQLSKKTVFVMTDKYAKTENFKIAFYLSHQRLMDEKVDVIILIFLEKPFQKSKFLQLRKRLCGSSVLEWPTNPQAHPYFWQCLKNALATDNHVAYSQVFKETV

Molecular target: human TLR7 (Homo sapiens (Human), UniProt Q9NYK1)
Experiment: Agonistic activity of compounds on HEK-Blue hTLR7 cells (QUANTI-Blue reporter, OD620)
Type: cell-based
Method: • 1. HEK-Blue hTLR7 cells (Invivogen) were cultured in DMEM medium (Hyclone) containing 10% FBS heat-inactivated fetal bovine serum (Corning). On the day of detection, the cell state was observed under a microscope, the cells were collected and resuspended, and the cell concentration was adjusted after counting, 50 μL per well, the total amount of cells was 2×10^4, and the cells were inoculated in a 96-well plate. • 2. After the cells adhered to the wall overnight, 50 μL of the test compound at different concentrations was added into the well plate, so that the final concentrations were 100 μM, 33.3 μM, 11.11 μM, 3.70 μM, 1.23 μM, 0.41 μM, 0.14 μM, 0.05 μM, 0 μM, and the final concentration of DMSO was 1%. The compound was incubated with the cells in a 37° C., 5% CO2 incubator for 20 h. • 3. […] 10 μL of cell culture supermatant was taken and transferred to a new 96-well transparent plate, 90 μL of QUANTI-Blue (Invivogen) detection reagent was added to each well, and incubated at 37° C. for 3 h, and OD620 was read with a multifunctional microplate reader (BMG LABTECH). • 4. EC50 was calculated by fitting with Graphpad Prism software log(agonist) vs. response—Variable slope, and Emax was the (D620 at which the activation effect of the test compound reached the maximum.

Q: CCCCc1nc2c(N)nc3cc(C4CCN(C(C)=O)CC4)sc3c2n1CC1CCOCC1 [Compound 59, 1-{4-[4-amino-2-butyl-1-(3,4,5,6-tetrahydro-2H-pyran-4-ylmethyl)thieno[3,2-b]imidazo[4,5-d]pyridin-7-yl]hexahydropyridin-1-yl}ethyl-1-one] was tested. Which “activation effect on human TLR7 (in words)” value did it give?
A: The value was “strong activation effect”.

Q: And the “Emax (OD620)” value (OD620 at maximum activation effect)?
A: Its value is 1.45 OD620.
